These results are taken from PMC2760858.

The target of the test is GST-hERK1 recombinant protein (human). The test is described as follows: affinity purification with mass spectrometry; 1 µg GST-hERK1 or GST-null on GSH-agarose beads, 500 µg HeLa mitochondrial protein, 0.2% Triton X-100, 150 mM NaCl, 20 mM Tris-HCl pH 7.4, 1 mM EDTA, 1 mM EGTA, overnight at 4°C; SDS-PAGE, Coomassie, bands identified by MALDI-TOF-MS (histones also by LC-MS/MS); five independent pull-downs; only the target purified.

Results are given in words; binding and its absence hold for the method and conditions named. In cells and extracts the contact can be indirect. Here binding means that the protein was enriched with, or labelled near, the bait; the list need not be complete.

B1: peroxiredoxin 3 (Prx3) (enzyme, UniProt P30048 62-256)
chain: APAVTQHAPYFKGTAVVNGEFKDLSLDDFKGKYLVLFFYPLDFTFVCPTEIVAFSDKANEFHDVNCEVVAVSVDSHFSHLAWINTPRKNGGLGHMNIALLSDLTKQISRDYGVLLEGSGLALRGLFIIDPNGVIKHLSVNDLPVGRSVEETLRLVKAFQYVETHGEVCPANWTPDSPTIKPSPAASKEYFQKVNQ
In the case of B1, the binding result is given as “binds”.
